The target of assay [1] is GFP-GBF1 (wild type) immunoprecipitated from cells expressing inactive SrcKM (human) (UniProt Q92538). In words: pull-down; in vitro Arf1 binding assay: NGFP-GBF1 (wild type or mutant) immunoprecipitated on GFP-trap agarose beads from cells expressing SrcKM or SrcEG, incubated with 10 µg recombinant Arf1-del17 protein for 1 hr at 4°C in the presence of GDP; washed three times with HKMT buffer (20 mM HEPES pH 7.4, 0.1 M KCl, 1 mM MgCl2, 0.5% Triton X-100); bound Arf1 by western blot; both purified.

Protein sequences, listed by entry. Tags and fused reporters are not part of them. Lines headed by an entry give the natural chain unless they say otherwise; changes in a name come on top. Chains listed by the source or under a name are the forms on record and can include a tag or linker.
GFP-GBF1 (wild type) immunoprecipitated from cells expressing inactive SrcKM (Q92538, form named): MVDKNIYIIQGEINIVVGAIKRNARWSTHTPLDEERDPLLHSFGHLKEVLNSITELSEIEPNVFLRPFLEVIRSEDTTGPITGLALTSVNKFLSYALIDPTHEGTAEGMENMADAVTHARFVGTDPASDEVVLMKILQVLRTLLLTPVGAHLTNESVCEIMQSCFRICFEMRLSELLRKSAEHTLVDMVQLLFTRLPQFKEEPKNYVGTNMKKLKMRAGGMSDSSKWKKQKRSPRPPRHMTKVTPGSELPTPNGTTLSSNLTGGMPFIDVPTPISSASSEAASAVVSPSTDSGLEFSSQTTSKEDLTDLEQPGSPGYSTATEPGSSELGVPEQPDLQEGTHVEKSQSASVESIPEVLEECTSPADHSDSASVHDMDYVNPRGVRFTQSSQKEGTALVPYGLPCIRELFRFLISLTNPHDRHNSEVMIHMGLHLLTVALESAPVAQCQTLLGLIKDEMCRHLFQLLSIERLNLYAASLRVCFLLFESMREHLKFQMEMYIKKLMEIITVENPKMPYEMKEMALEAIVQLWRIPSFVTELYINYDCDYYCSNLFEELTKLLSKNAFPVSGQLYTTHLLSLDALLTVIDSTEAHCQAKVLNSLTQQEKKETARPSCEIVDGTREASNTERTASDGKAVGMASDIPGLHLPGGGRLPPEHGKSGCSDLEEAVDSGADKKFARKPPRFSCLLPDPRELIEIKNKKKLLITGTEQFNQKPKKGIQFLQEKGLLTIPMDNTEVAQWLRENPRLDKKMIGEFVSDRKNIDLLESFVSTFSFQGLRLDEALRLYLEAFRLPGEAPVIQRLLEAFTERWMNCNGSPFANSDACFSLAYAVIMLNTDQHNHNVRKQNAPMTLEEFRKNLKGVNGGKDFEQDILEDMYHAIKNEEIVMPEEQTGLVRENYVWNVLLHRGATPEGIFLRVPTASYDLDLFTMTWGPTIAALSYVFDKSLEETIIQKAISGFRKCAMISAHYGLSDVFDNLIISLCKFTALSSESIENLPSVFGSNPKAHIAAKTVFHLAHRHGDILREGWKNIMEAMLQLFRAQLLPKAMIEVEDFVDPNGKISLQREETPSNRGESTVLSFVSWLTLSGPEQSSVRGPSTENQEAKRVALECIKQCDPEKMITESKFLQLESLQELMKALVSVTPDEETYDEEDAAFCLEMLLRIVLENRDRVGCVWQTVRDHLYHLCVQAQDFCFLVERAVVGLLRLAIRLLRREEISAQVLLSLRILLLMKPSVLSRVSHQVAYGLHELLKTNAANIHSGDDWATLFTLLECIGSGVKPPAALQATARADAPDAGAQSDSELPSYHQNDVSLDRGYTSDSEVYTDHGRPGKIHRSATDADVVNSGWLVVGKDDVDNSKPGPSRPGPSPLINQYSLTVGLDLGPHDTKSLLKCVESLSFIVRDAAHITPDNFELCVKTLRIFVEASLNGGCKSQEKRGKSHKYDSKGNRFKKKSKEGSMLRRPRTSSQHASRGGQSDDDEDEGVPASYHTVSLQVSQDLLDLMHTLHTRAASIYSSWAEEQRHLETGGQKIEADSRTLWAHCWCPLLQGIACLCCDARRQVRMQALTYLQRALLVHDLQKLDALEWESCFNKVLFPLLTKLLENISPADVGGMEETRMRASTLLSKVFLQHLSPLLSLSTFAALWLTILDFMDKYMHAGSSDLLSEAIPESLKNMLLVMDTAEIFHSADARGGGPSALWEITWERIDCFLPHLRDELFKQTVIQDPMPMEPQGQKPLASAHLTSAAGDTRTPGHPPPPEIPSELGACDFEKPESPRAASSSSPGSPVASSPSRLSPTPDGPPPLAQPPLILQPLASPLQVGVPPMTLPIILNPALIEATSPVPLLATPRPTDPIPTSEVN
UniProt P84077: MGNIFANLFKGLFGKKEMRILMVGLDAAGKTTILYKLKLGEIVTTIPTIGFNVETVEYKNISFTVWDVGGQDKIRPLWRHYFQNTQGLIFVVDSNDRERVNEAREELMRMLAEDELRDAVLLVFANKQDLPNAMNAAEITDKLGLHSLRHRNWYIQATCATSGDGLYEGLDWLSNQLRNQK

Assay [2] shares this target. The assay can be described thus: pull-down; in vitro Arf1 binding assay: NGFP-GBF1 immunoprecipitated on GFP-trap agarose beads from cells expressing SrcKM or SrcEG, incubated with 4 mg lysate of HEK293T cells expressing Arf1-V5 (pre-cleared) for 1 hr at 4°C in the presence of GDP; washed three times with HKMT buffer (20 mM HEPES pH 7.4, 0.1 M KCl, 1 mM MgCl2, 0.5% Triton X-100); bound Arf1 by immunoblot; only the target purified.

No constants are given. Whether binding was seen depends on the method and setting. For some assays here: Binding seen in cells or lysates may run through a third protein. Some results given as binding are weak or reduced against the parent protein; the word gives no strength.

Regarding “Arf1-del17-His, recombinant Arf1 deleted of the first 17 amino acids (from UniProt P84077 18-181) (domain or fragment)”, in assay [1], the binding entry is given as “binds”.

Regarding “C-terminal V5-tagged Arf1 (Arf1-V5) (from UniProt P84077 1-181)”, the binding result in assay [2] is on record as “binds”.

The values are drawn from paper PMC8727025.
